Experimental findings from patent publication US20080069777A1 are described below.

Chains of the proteins cited; added tags and fusions are not shown. Lines headed by an entry give the natural chain unless they say otherwise; changes in a name come on top.
UniProt P20701: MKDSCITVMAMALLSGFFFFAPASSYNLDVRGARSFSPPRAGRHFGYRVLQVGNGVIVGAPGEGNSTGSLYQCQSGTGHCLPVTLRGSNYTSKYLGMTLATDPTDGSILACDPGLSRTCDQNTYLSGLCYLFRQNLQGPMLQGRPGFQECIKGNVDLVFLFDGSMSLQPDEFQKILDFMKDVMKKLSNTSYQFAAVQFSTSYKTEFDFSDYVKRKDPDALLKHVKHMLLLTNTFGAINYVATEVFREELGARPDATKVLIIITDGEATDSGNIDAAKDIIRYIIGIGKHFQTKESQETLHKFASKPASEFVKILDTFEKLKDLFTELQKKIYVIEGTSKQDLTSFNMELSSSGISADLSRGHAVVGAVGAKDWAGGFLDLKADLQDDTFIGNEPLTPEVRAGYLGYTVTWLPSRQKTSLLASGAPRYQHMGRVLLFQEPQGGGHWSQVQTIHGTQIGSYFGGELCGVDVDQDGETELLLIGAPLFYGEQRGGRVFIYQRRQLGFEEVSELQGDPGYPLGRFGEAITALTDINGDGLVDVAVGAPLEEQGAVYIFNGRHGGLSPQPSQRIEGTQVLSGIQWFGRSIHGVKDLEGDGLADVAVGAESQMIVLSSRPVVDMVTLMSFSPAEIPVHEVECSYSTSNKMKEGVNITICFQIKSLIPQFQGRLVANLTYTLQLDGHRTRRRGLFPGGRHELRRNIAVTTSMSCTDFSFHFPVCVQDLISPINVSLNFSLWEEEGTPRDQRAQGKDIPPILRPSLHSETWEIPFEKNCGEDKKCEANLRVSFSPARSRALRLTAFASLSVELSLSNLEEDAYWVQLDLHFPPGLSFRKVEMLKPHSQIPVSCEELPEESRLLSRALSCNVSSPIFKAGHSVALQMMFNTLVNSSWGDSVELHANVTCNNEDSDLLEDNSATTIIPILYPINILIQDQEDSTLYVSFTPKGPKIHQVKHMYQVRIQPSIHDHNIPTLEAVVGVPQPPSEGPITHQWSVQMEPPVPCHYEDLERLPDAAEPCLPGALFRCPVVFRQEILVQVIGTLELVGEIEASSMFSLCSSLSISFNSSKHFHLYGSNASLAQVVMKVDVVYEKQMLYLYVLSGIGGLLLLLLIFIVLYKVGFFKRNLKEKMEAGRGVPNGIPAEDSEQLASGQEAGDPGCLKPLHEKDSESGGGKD

The target of test [1] is human wild-type LFA-1 on cells (human) (UniProt P20701). As to the kind of experiment: binding to cells with magnesium.
Test [2] has the same target. As to the kind of experiment: binding to cells (by reference to the Fab).

Results are given in words; binding and its absence hold for the method and conditions named. Some entries that bind do so weakly or less than the wild type.

B1: D2-57 Fab (Fab, V domains shown)
VH: EVQLLESGGGLVQPGGSLRLSCAASGFTFSRYVMWWVRQAPGKGLEWVSYIWPSGGNTYYADSVKGRFTISRDNSKNTLYLQMNSLRAEDTAVYYCASSYDFWSNAFDIWGQGTMVTVSS
VL: DIQMTQSPSSLSASVGDRVTITCRASQSIGSYLNWYQQKTGKAPKALIYAASSLQSGVPSRFSGSGSGTDFTLTISSLQLEDFATYYCQQSYSTPSFGQGTKVEIKR
Turning to B1, the binding entry in test [1] is “binds”.

B2: D2-57 IgG1 (antibody, V domains shown)
VH: B1 VH
VL: B1 VL
Regarding B2, in test [2], the binding result is listed as “binds”.
